Where two headings read alike, the source gives them in different places.
Legend:
[1] = for Assay (On dried Basis) (% w/w): specification: Not less than 98.0 and not more than 102.0; for Loss on drying (% w/w): specification: Not more than 0.5; for Description: specification: White to creamy white colour powder; for Identification by HPLC: specification: retention time of principal peak corresponds to standard solution
[2] = at room temperature
[3] = 3 months, storage 30° C.±2° C. at 65%±5% RH and 40° C.±2° C. at 75%±5% RH
[4] = 6 months, storage 30° C.±2° C. at 65%±5% RH and 40° C.±2° C. at 75%±5% RH

**Q.** What does the source list for `CC(=O)[C@H]1CC[C@H]2[C@@H]3CC[C@H]4C[C@H](O)CC[C@]4(C)[C@H]3C(=O)C[C@]12C` [Alfaxalone, 3-α-hydroxy-5-α-pregnane-11, 20-dione]?
**A.** Assay (On dried Basis) (% w/w) [1, 3]: Complies; Loss on drying (% w/w) [1, 3]: Complies; Description [1, 3]: white colour; Identification by HPLC [1, 3]: Complies; Assay (On dried Basis) (% w/w) [1, 4]: Complies; Loss on drying (% w/w) [1, 4]: Complies; Description [1, 4]: white colour; Identification by HPLC [1, 4]: Complies; Assay (On dried Basis) (% w/w) ([1]; Initial): Complies; Loss on drying (% w/w) ([1]; Initial): Complies; Description ([1]; Initial): white colour; Identification by HPLC ([1]; Initial): Complies; stable for (duration of stability) [2]: at least 6 months
